# From paper PMC10284917
# Protein sequences, listed by entry. Tags and fused reporters are not part of them.
# UniProt Q27J81: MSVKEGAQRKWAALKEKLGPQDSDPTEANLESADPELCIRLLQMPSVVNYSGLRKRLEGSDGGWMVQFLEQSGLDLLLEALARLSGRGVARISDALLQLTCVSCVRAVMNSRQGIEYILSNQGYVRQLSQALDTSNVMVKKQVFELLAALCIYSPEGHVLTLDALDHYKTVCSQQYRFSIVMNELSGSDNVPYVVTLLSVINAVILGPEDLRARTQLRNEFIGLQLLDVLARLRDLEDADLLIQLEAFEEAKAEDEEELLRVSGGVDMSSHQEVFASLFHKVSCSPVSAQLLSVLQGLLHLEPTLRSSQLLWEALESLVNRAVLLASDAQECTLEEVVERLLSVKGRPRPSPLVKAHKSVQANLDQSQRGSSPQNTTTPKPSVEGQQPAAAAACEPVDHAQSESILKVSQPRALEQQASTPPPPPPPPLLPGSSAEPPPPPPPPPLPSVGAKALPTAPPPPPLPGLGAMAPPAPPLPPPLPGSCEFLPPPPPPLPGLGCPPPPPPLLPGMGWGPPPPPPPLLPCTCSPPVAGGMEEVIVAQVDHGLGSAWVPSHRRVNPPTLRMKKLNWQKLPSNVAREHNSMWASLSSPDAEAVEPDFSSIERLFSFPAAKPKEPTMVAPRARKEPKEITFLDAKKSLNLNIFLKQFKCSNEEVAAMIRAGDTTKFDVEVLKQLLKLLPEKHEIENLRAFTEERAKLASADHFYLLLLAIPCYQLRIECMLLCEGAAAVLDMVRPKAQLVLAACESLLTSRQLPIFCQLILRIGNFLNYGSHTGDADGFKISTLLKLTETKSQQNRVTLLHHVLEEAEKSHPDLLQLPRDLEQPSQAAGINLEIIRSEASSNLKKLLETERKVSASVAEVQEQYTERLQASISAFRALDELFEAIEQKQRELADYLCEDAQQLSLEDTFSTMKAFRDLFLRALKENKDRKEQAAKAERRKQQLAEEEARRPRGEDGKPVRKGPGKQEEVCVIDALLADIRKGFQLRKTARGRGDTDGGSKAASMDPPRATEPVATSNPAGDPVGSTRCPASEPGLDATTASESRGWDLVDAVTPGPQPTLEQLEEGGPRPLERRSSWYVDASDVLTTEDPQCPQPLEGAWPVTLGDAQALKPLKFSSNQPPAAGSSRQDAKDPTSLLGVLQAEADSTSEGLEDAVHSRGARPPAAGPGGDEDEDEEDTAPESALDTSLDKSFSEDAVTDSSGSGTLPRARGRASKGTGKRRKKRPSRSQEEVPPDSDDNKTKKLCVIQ
# Target: FLAG-INF2 (INF2-CAXX, ER-localized inverted formin 2) (UniProt Q27J81)
# Assay: affinity purification with mass spectrometry; FLAG-INF2 protein complex from HEK-293T cells; anti-FLAG M2 agarose beads, eluted with FLAG peptide, SDS-PAGE, Coomassie Blue staining, mass spectrometry
row,binding,Binder
1,binds,"FBXO50 (protein, UniProt Q6ZVX7 1-275) MEEVREGHALGGGMEADGPASLQELPPSPRSPSPPPSPPPLPSPPSLPSPAAPEAPELPEPAQPSEAHARQLLLEEWGPLSGGLELPQRLTWKLLLLRRPLYRNLLRSPNPEGINIYEPAPPTGPTQRPLETLGNFRGWYIRTEKLQQNQSWTVKQQCVDLLAEGLWEELLDDEQPAITVMDWFEDSRLDACVYELHVWLLAADRRTVIAQHHVAPRTSGRGPPGRWVQVSHVFRHYGPGVRFIHFLHKAKNRMEPGGLRRTRVTDSSVSVQLRE"
2,binds,"MCM3 (protein, UniProt P25205 1-808) MAGTVVLDDVELREAQRDYLDFLDDEEDQGIYQSKVRELISDNQYRLIVNVNDLRRKNEKRANRLLNNAFEELVAFQRALKDFVASIDATYAKQYEEFYVGLEGSFGSKHVSPRTLTSCFLSCVVCVEGIVTKCSLVRPKVVRSVHYCPATKKTIERRYSDLTTLVAFPSSSVYPTKDEENNPLETEYGLSVYKDHQTITIQEMPEKAPAGQLPRSVDVILDDDLVDKAKPGDRVQVVGTYRCLPGKKGGYTSGTFRTVLIACNVKQMSKDAQPSFSAEDIAKIKKFSKTRSKDIFDQLAKSLAPSIHGHDYVKKAILCLLLGGVERDLENGSHIRGDINILLIGDPSVAKSQLLRYVLCTAPRAIPTTGRGSSGVGLTAAVTTDQETGERRLEAGAMVLADRGVVCIDEFDKMSDMDRTAIHEVMEQGRVTIAKAGIHARLNARCSVLAAANPVYGRYDQYKTPMENIGLQDSLLSRFDLLFIMLDQMDPEQDREISDHVLRMHRYRAPGEQDGDAMPLGSAVDILATDDPNFSQEDQQDTQIYEKHDNLLHGTKKKKEKMVSAAFMKKYIHVAKIIKPVLTQESATYIAEEYSRLRSQDSMSSDTARTSPVTARTLETLIRLATAHAKARMSKTVDLQDAEEAVELVQYAYFKKVLEKEKKRKKRSEDESETEDEEEKSQEDQEQKRKRRKTRQPDAKDGDSYDPYDFSDTEEEMPQVHTPKTADSQETKESQKVELSESRLKAFKVALLDVFREAHAQSIGMNRLTESINRDSEEPFSSVEIQAALSKMQDDNQVMVSEGIIFLI"

# Further lines, the binder ahead of its results:
row,Binder,binding
1,"FBXO3 (protein, UniProt Q9UK99 1-471) MAAMETETAPLTLESLPTDPLLLILSFLDYRDLINCCYVSRRLSQLSSHDPLWRRHCKKYWLISEEEKTQKNQCWKSLFIDTYSDVGRYIDHYAAIKKAWDDLKKYLEPRCPRMVLSLKEGAREEDLDAVEAQIGCKLPDDYRCSYRIHNGQKLVVPGLLGSMALSNHYRSEDLLDVDTAAGGFQQRQGLKYCLPLTFCIHTGLSQYIAVEAAEGRNKNEVFYQCPDQMARNPAAIDMFIIGATFTDWFTSYVKNVVSGGFPIIRDQIFRYVHDPECVATTGDITVSVSTSFLPELSSVHPPHYFFTYRIRIEMSKDALPEKACQLDSRYWRITNAKGDVEEVQGPGVVGEFPIISPGRVYEYTSCTTFSTTSGYMEGYYTFHFLYFKDKIFNVAIPRFHMACPTFRVSIARLEMGPDEYEEMEEEEEEEEEEDEDDDSADMDESDEDDEEERRRRVFDVPIRRRRCSRLF",binds
2,"FBXL20 (protein, UniProt Q96IG2 1-436) MRRDVNGVTKSRFEMFSNSDEAVINKKLPKELLLRIFSFLDVVTLCRCAQVSRAWNVLALDGSNWQRIDLFDFQRDIEGRVVENISKRCGGFLRKLSLRGCLGVGDNALRTFAQNCRNIEVLNLNGCTKTTDATCTSLSKFCSKLRHLDLASCTSITNMSLKALSEGCPLLEQLNISWCDQVTKDGIQALVRGCGGLKALFLKGCTQLEDEALKYIGAHCPELVTLNLQTCLQITDEGLITICRGCHKLQSLCASGCSNITDAILNALGQNCPRLRILEVARCSQLTDVGFTTLARNCHELEKMDLEECVQITDSTLIQLSIHCPRLQVLSLSHCELITDDGIRHLGNGACAHDQLEVIELDNCPLITDASLEHLKSCHSLERIELYDCQQITRAGIKRLRTHLPNIKVHAYFAPVTPPPSVGGSRQRFCRCCIIL",binds
3,"F-box/LRR-repeat protein 18 (FBXL18) (protein, UniProt Q96ME1 1-718) MASSGEDISNDDDDMHPAAAGMADGVHLLGFSDEILLHILSHVPSTDLILNVRRTCRKLAALCLDKSLIHTVLLQKDYQASEDKVRQLVKEIGREIQQLSMAGCYWLPGSTVEHVARCRSLVKVNLSGCHLTSLRLSKMLSALQHLRSLAIDVSPGFDASQLSSECKATLSRVRELKQTLFTPSYGVVPCCTSLEKLLLYFEILDRTREGAILSGQLMVGQSNVPHYQNLRVFYARLAPGYINQEVVRLYLAVLSDRTPQNLHAFLISVPGSFAESGATKNLLDSMARNVVLDALQLPKSWLNGSSLLQHMKFNNPFYFSFSRCTLSGGHLIQQVINGGKDLRSLASLNLSGCVHCLSPDSLLRKAEDDIDSSILETLVASCCNLRHLNLSAAHHHSSEGLGRHLCQLLARLRHLRSLSLPVCSVADSAPRADRAPAQPAMHAVPRGFGKKVRVGVQSCPSPFSGQACPQPSSVFWSLLKNLPFLEHLELIGSNFSSAMPRNEPAIRNSLPPCSRAQSVGDSEVAAIGQLAFLRHLTLAQLPSVLTGSGLVNIGLQCQQLRSLSLANLGMMGKVVYMPALSDMLKHCKRLRDLRLEQPYFSANAQFFQALSQCPSLQRLCLVSRSGTLQPDAVLAFMARCLQVVMCHLFTGESLATCKSLQQSLLRSFQAERPALNVVIFPLLHEGLTDVIRDVPLVHLDEITLFKSRVAEEPPNLWW",binds

# These are yes or no findings as the source states them, for the method shown. Binding seen in cells or lysates may run through a third protein. Here binding means that the protein was enriched with, or labelled near, the bait; the list need not be complete.
